Test results: the supplement of paper PMC8728848
Some of the results follow.

Experiments:
Assay in all cases: glycan array binding signal (z-score within array); higher = stronger binding
Settings in all cases: glycan notation: IUPAC condensed, linker removed
Gal(a1-6)Glc = molecular target: Gal(a1-6)Glc
In short: (§1)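 The binding signal is a Z-score computed within each array and averaged over linkers. Arrays of the same protein sequence at different concentrations or buffers were also averaged together. Data originate from 3228 arrays in the Consortium for Functional Glycomics database, kept only where the protein sequence was available.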

Gal(b1-2)Gal = molecular target: Gal(b1-2)Gal
In short: as §1

Gal(b1-3)Gal = molecular target: Gal(b1-3)Gal
In short: as §1

Gal(b1-3)Gal(b1-4)GlcNAc = molecular target: Gal(b1-3)Gal(b1-4)GlcNAc
In short: as §1

Gal(b1-3)GalNAc = molecular target: Gal(b1-3)GalNAc
In short: as §1

[1] = molecular target: Gal(b1-3)GalNAc(a1-3)[Fuc(a1-2)]Gal(b1-4)Glc
In short: as §1

[2] = molecular target: Gal(b1-3)GalNAc(a1-3)[Fuc(a1-2)]Gal(b1-4)GlcNAc
In short: as §1

Gal(b1-3)GalNAc(b1-3)Gal = molecular target: Gal(b1-3)GalNAc(b1-3)Gal
In short: as §1

[3] = molecular target: Gal(b1-3)GalNAc(b1-3)Gal(a1-4)Gal(b1-4)Glc
In short: as §1

[4] = molecular target: Gal(b1-3)GalNAc(b1-4)Gal(b1-4)Glc
In short: as §1

[5] = molecular target: Gal(b1-3)GalNAc(b1-4)[Neu5Ac(a2-3)]Gal(b1-4)Glc
In short: as §1

Gal(b1-3)GlcNAc = molecular target: Gal(b1-3)GlcNAc
In short: as §1

[6] = molecular target: Gal(b1-3)GlcNAc(a1-3)Gal(b1-4)GlcNAc
In short: as §1

[7] = molecular target: Gal(b1-3)GlcNAc(a1-6)Gal(b1-4)GlcNAc
In short: as §1

Gal(b1-3)GlcNAc(b1-2)Man = molecular target: Gal(b1-3)GlcNAc(b1-2)Man
In short: as §1

[8] = molecular target: Gal(b1-3)GlcNAc(b1-2)Man(a1-3)[Gal(b1-3)GlcNAc(b1-2)Man(a1-6)]Man(b1-4)GlcNAc(b1-4)GlcNAc
In short: as §1

[9] = molecular target: Gal(b1-3)GlcNAc(b1-2)Man(a1-3)[Gal(b1-3)GlcNAc(b1-2)Man(a1-6)]Man(b1-4)GlcNAc(b1-4)[Fuc(a1-6)]GlcNAc
In short: as §1

[10] = molecular target: Gal(b1-3)GlcNAc(b1-2)Man(a1-3)[GlcNAc(b1-4)][Gal(b1-3)GlcNAc(b1-2)Man(a1-6)]Man(b1-4)GlcNAc(b1-4)GlcNAc
In short: as §1

[11] = molecular target: Gal(b1-3)GlcNAc(b1-2)[Gal(b1-3)GlcNAc(b1-6)]Man(a1-6)[Gal(b1-3)GlcNAc(b1-2)Man(a1-3)]Man(b1-4)GlcNAc(b1-4)GlcNAc
In short: as §1

[12] = molecular target: Gal(b1-3)GlcNAc(b1-3)Gal(b1-3)GlcNAc
In short: as §1

[13] = molecular target: Gal(b1-3)GlcNAc(b1-3)Gal(b1-4)Glc
In short: as §1

[14] = molecular target: Gal(b1-3)GlcNAc(b1-3)Gal(b1-4)GlcNAc
In short: as §1

[15] = molecular target: Gal(b1-3)GlcNAc(b1-3)Gal(b1-4)GlcNAc(b1-2)Man(a1-3)[Gal(b1-3)GlcNAc(b1-3)Gal(b1-4)GlcNAc(b1-2)Man(a1-6)]Man(b1-4)GlcNAc(b1-4)GlcNAc
In short: as §1

[16] = molecular target: Gal(b1-3)GlcNAc(b1-3)Gal(b1-4)GlcNAc(b1-2)[Gal(b1-3)GlcNAc(b1-3)Gal(b1-4)GlcNAc(b1-6)]Man(a1-6)[Gal(b1-3)GlcNAc(b1-3)Gal(b1-4)GlcNAc(b1-2)Man(a1-3)]Man(b1-4)GlcNAc(b1-4)[Fuc(a1-6)]GlcNAc
In short: as §1

[17] = molecular target: Gal(b1-3)GlcNAc(b1-3)Gal(b1-4)GlcNAc(b1-3)Gal(b1-4)GlcNAc(b1-2)[Gal(b1-3)GlcNAc(b1-3)Gal(b1-4)GlcNAc(b1-3)Gal(b1-4)GlcNAc(b1-6)]Man(a1-6)[Gal(b1-3)GlcNAc(b1-3)Gal(b1-4)GlcNAc(b1-3)Gal(b1-4)GlcNAc(b1-2)Man(a1-3)]Man(b1-4)GlcNAc(b1-4)[Fuc(a1-6)]GlcNAc
In short: as §1

[18] = molecular target: Gal(b1-3)GlcNAc(b1-3)Gal(b1-4)GlcNAc(b1-6)[Gal(b1-3)GlcNAc(b1-3)]Gal(b1-4)Glc
In short: as §1

[19] = molecular target: Gal(b1-3)GlcNAc(b1-3)Gal(b1-4)[Fuc(a1-3)]GlcNAc
In short: as §1

[20] = molecular target: Gal(b1-3)GlcNAc(b1-3)Gal(b1-4)[Fuc(a1-3)]GlcNAc(b1-6)[Gal(b1-3)GlcNAc(b1-3)]Gal(b1-4)Glc
In short: as §1

[21] = molecular target: Gal(b1-3)GlcNAc(b1-3)GalNAc
In short: as §1

[22] = molecular target: Gal(b1-3)GlcNAc(b1-6)Gal(b1-4)GlcNAc
In short: as §1

[23] = molecular target: Gal(b1-3)GlcNAc(b1-6)GalNAc
In short: as §1

[24] = molecular target: Gal(b1-3)GlcNAc(b1-6)[Gal(b1-3)]GalNAc
In short: as §1

Gal(b1-3)GlcNAc6S = molecular target: Gal(b1-3)GlcNAc6S
In short: as §1

[25] = molecular target: Gal(b1-3)[Fuc(a1-4)]GlcNAc
In short: as §1

[26] = molecular target: Gal(b1-3)[Fuc(a1-4)]GlcNAc(b1-2)Man
In short: as §1

[27] = molecular target: Gal(b1-3)[Fuc(a1-4)]GlcNAc(b1-2)Man(a1-3)[Gal(b1-3)[Fuc(a1-4)]GlcNAc(b1-2)Man(a1-6)]Man(b1-4)GlcNAc(b1-4)[Fuc(a1-6)]GlcNAc
In short: as §1

[28] = molecular target: Gal(b1-3)[Fuc(a1-4)]GlcNAc(b1-3)Gal(b1-3)[Fuc(a1-4)]GlcNAc
In short: as §1

[29] = molecular target: Gal(b1-3)[Fuc(a1-4)]GlcNAc(b1-3)Gal(b1-4)[Fuc(a1-3)]GlcNAc
In short: as §1

[30] = molecular target: Gal(b1-3)[Fuc(a1-4)]GlcNAc(b1-6)GalNAc
In short: as §1

[31] = molecular target: Gal(b1-3)[GlcNAc(b1-6)]GalNAc
In short: as §1

[32] = molecular target: Gal(b1-3)[Neu5Ac(a2-6)]GalNAc
In short: as §1

[33] = molecular target: Gal(b1-3)[Neu5Ac(a2-6)]GlcNAc(b1-4)Gal(b1-4)Glc
In short: as §1

[34] = molecular target: Gal(b1-3)[Neu5Ac(b2-6)]GalNAc
In short: as §1

Gal(b1-4)Gal = molecular target: Gal(b1-4)Gal
In short: as §1

[35] = molecular target: Gal(b1-4)GalNAc(a1-3)[Fuc(a1-2)]Gal(b1-4)GlcNAc
In short: as §1

B1: XTP3-B-MRH1 (Homo sapiens), Q96DZ1 (protein)
chain: LLEPLFKQSSCSYRIESYWTYEVCHGKHIRQYHEEKETGQKINIHEYYLGNMLAKNLLFEKEREAEEKEKSNEIPTKNIEGQMTPYYPVGMGNGTPCSLKQNRPRSSTVMYICHPESKHEILSVAEVTTCEYEVVILTPLLCSHPKYRFRA
How did the “glycan array binding signal (z-score)” value (Gal(a1-6)Glc) turn out when B1 was run?
The value was -0.507.

What about the “glycan array binding signal (z-score)” value (Gal(b1-2)Gal) of the same binder?
Its value is 1.1.

And the “glycan array binding signal (z-score)” value (Gal(b1-3)Gal)?
Its value is 0.294.

What about the “glycan array binding signal (z-score)” value (Gal(b1-3)Gal(b1-4)GlcNAc) of the same binder?
The value was 0.861.

What about the “glycan array binding signal (z-score)” value (Gal(b1-3)GalNAc) of the same binder?
The value was -0.634.

And the “glycan array binding signal (z-score)” value [1]?
The value was -0.458.

What about the “glycan array binding signal (z-score)” value [2] of the same binder?
The value was 1.11.

What about the “glycan array binding signal (z-score)” value (Gal(b1-3)GalNAc(b1-3)Gal) of the same binder?
The value was -0.305.

What about the “glycan array binding signal (z-score)” value [3] of the same binder?
The value was -1.21.

What about the “glycan array binding signal (z-score)” value [4] of the same binder?
Its value is 0.299.

What about the “glycan array binding signal (z-score)” value [5] of the same binder?
The value was -0.533.

And the “glycan array binding signal (z-score)” value (Gal(b1-3)GlcNAc)?
The value was -0.468.

And the “glycan array binding signal (z-score)” value [6]?
The value was 1.09.

And the “glycan array binding signal (z-score)” value [7]?
The value was 1.46.

And the “glycan array binding signal (z-score)” value (Gal(b1-3)GlcNAc(b1-2)Man)?
The value was -0.297.

What about the “glycan array binding signal (z-score)” value [8] of the same binder?
The value was -0.125.

And the “glycan array binding signal (z-score)” value [9]?
Its value is 0.47.

What about the “glycan array binding signal (z-score)” value [10] of the same binder?
Its value is -0.558.

What about the “glycan array binding signal (z-score)” value [11] of the same binder?
The value was 0.132.

And the “glycan array binding signal (z-score)” value [12]?
The value was -1.08.

What about the “glycan array binding signal (z-score)” value [13] of the same binder?
Its value is 0.543.

What about the “glycan array binding signal (z-score)” value [14] of the same binder?
Its value is -1.16.

What about the “glycan array binding signal (z-score)” value [15] of the same binder?
Its value is 0.941.

What about the “glycan array binding signal (z-score)” value [16] of the same binder?
Its value is 1.95.

What about the “glycan array binding signal (z-score)” value [17] of the same binder?
The value was 0.617.

What about the “glycan array binding signal (z-score)” value [18] of the same binder?
The value was -0.804.

What about the “glycan array binding signal (z-score)” value [19] of the same binder?
Its value is -0.846.

What about the “glycan array binding signal (z-score)” value [20] of the same binder?
The value was -0.876.

And the “glycan array binding signal (z-score)” value [21]?
The value was -0.229.

What about the “glycan array binding signal (z-score)” value [22] of the same binder?
The value was 0.173.

What about the “glycan array binding signal (z-score)” value [23] of the same binder?
Its value is 0.17.

And the “glycan array binding signal (z-score)” value [24]?
The value was -1.18.

And the “glycan array binding signal (z-score)” value (Gal(b1-3)GlcNAc6S)?
Its value is -0.515.

And the “glycan array binding signal (z-score)” value [25]?
The value was 0.453.

What about the “glycan array binding signal (z-score)” value [26] of the same binder?
The value was 0.501.

What about the “glycan array binding signal (z-score)” value [27] of the same binder?
The value was -0.731.

And the “glycan array binding signal (z-score)” value [28]?
The value was 1.9.

And the “glycan array binding signal (z-score)” value [29]?
Its value is -0.545.

What about the “glycan array binding signal (z-score)” value [30] of the same binder?
The value was -0.931.

What about the “glycan array binding signal (z-score)” value [31] of the same binder?
Its value is -0.389.

What about the “glycan array binding signal (z-score)” value [32] of the same binder?
Its value is 0.528.

What about the “glycan array binding signal (z-score)” value [33] of the same binder?
Its value is 0.147.

What about the “glycan array binding signal (z-score)” value [34] of the same binder?
The value was -0.816.

What about the “glycan array binding signal (z-score)” value (Gal(b1-4)Gal) of the same binder?
The value was -1.33.

What about the “glycan array binding signal (z-score)” value [35] of the same binder?
Its value is -0.41.
